Assay results taken from PMC11914105.
No constants are given. Whether binding was seen depends on the method and setting. Binding seen in cells or lysates may run through a third protein. Some entries that bind do so weakly or less than the wild type. One block for each substance: values may come before it.

Amino acid sequences for entries named in this document (tags omitted).
UniProt Q8IZR5: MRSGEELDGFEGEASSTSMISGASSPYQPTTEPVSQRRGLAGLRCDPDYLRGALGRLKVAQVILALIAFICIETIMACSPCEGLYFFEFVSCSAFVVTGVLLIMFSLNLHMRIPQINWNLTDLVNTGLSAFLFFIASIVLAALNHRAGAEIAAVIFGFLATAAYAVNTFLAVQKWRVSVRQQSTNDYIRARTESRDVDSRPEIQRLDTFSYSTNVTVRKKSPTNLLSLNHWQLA
UniProt Q8CJ61: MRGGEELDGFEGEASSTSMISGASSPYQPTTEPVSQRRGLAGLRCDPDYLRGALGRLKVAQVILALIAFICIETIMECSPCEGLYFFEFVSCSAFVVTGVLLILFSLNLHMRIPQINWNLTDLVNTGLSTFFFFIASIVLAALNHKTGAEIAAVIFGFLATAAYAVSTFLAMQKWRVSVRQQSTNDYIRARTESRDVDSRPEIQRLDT
UniProt Q9UL25: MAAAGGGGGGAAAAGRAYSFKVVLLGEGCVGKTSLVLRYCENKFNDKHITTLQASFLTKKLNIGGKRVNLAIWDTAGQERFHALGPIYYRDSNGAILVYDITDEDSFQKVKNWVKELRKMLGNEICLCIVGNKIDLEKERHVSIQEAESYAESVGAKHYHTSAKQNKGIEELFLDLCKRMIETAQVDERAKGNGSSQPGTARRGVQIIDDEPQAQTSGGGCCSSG

Key:
[1] = target: CMTM4, endogenous in human H292 and HCC827 cells (human (endogenous in H292 and HCC827)) (UniProt Q8IZR5); experiment: co-IP; 4T1, LLC, H292 or HCC827 cells without transfection, starved overnight without serum; protein extract immuno-precipitated with anti-CMTM4 antibody, western blot with antibodies against EGFR and CMTM4
[2] = target: CMTM4, endogenous in mouse 4T1 and LLC cells (mouse (endogenous in 4T1 and LLC)) (UniProt Q8CJ61); experiment: as above
[3] = target: human CMTM4-Myc (human) (UniProt Q8IZR5); experiment: co-IP; lysate from 293T cells transfected with human CMTM4-Myc with or without Rab21-HA; immuno-precipitated by Myc antibody, blotted by HA antibody

binding [1]: binds
Substance: EGFR, endogenous in human H292 cells (from UniProt P00533 25-1210) (receptor)

binding [2]: binds
Substance: EGFR, endogenous in mouse 4T1 and LLC cells (from UniProt Q01279 25-1210) (receptor)

binding [3]: binds
Substance: Rab21-HA (from UniProt Q9UL25 1-225)
